Values joined by “and” are separate entries in the source; they are usually repeats but may differ in a detail not shown here. Identical values can stand only once.
Experiment: general procedure: solution-phase peptide synthesis; PyBop, DIPEA
Conditions: coupling step

Q: With “Benzyl(6R,9S,12R,15S)-2,2,5,6,11,12-hexamethyl-4,7,10,13-tetraoxo-9,15-dipentyl-3-oxa-5,8,11,14-tetraazahexadecan-16-oate” as the substance, how does the step yield read?
A: 94%

Q: With “Benzyl (6R,9S,12R,15S,18R,21S,24R,27S)-2,2,5,6,8,11,12,14,17,18,20,23,24,26-tetradecamethyl-4,7,10,13,16,19,22,25-octaoxo-9,15,21,27-tetrapentyl-3-oxa-5,8,11,14,17,20,23,26-octaazaoctacosan-28-oate” as the substance, how does the step yield read?
A: 55%

Q: With “(S)-1-(benzyloxy)-1-oxoheptan-2-yl (6R,9S,12R)-2,2,5,6,11,12-hexamethyl-4,7,10-trioxo-9-pentyl-3-oxa-5,8,11- triazatridecan-13-oate” as the substance, how does the step yield read?
A: 81%

Q: Which step yield does the source give for “Benzyl (S)-2-(((6R,9S,12R,15S,18R,21S,24R)-2,2,6,11,12,17,18,23,24-nonamethyl-4,7,10,13,16,19,22-heptaoxo-9,15,21-tripentyl-3,8,14,20-tetraoxa-5,11,17,23-tetraazapentacosan-25-oyl)oxy)heptanoate” here?
A: 80%

Q: For “(S)-1-(((R)-1-(((S)-1-(benzyloxy)-1-oxoheptan-2-yl)oxy)-1-oxopropan-2-yl)(methyl)amino)-1-oxoheptan-2-yl (6R,9S,12R,15S,18R)-2,2,5,6,11,12,17,18-octamethyl-4,7,10,13,16-pentaoxo-9,15-dipentyl-3-oxa-5,8,11,14,17-pentaazanonadecan-19-oate”, which step yield is on record?
A: 70%

Q: With “Benzyl (R)-2-(((6R,9R,12R)-2,2,5,6,11,12-hexamethyl-4,7,10-trioxo-9-pentyl-3,8-dioxa-5,11-diazatridecan-13-oyl)oxy) heptanoate” as the substance, how does the step yield read?
A: 94%

Q: With “Benzyl (6R,9S,12R,15S)-2,2,5,6,8,11,12-heptamethyl-4,7,10,13-tetraoxo-9,15-dipentyl-3-oxa-5,8,11,14-tetraazahexadecan-16-oate” as the substance, how does the step yield read?
A: 68%

Q: For “Benzyl (6R,9S,12R,15S,18R,21S)-2,2,5,6,8,11,12,14,17,18,20-undecamethyl-4,7,10,13,16,19-hexaoxo-9,15,21-tripentyl-3-oxa-5,8,11,14,17,20-hexaazadocosan-22-oate”, which step yield is on record?
A: 59%

Q: For “Benzyl (6R,9S,12R,15S)-2,2,5,6,8,12,14-heptamethyl-4,7,10,13-tetraoxo-9,15-dipentyl-3-oxa-5,8,11,14-tetraazahexadecan-16-oate”, which step yield is on record?
A: 64–70% yield

Q: With “Benzyl (6R,9S,12R,15S)-2,2,6,8,11,12,14-heptamethyl-4,7,10,13-tetraoxo-9,15-dipentyl-3-oxa-5,8,11,14-tetraazahexadecan-16-oate” as the substance, how does the step yield read?
A: 72% yield

Q: With “Benzyl (6R,9S,12R,15S,18R,21S)-2,2,5,6,11,12,17,18-octamethyl-4,7,10,13,16,19-hexaoxo-9,15,21-tripentyl-3-oxa-5,8,11,14,17,20-hexaazadocosan-22-oate” as the substance, how does the step yield read?
A: 70%

Q: Which step yield does the source give for “Benzyl(6R,9S,12R,15S,18R,21S,24R,27S)-2,2,5,6,11,12,17,18,23,24-decamethyl-4,7,10,13,16,19,22,25-octaoxo-9,15,21,27-tetrapentyl-3-oxa-5,8,11,14,17,20,23,26-octaazaoctacosan-28-oate” here?
A: 63%

Q: With “Benzyl (6R,9S,12R,15S)-2,2,6,8,12,14-hexamethyl-4,7,10,13-tetraoxo-9,15-dipentyl-3-oxa-5,8,11,14-tetraazahexadecan-16-oate” as the substance, how does the step yield read?
A: 70% and 64–70% yield

Q: For “Benzyl (S)-2-(((6R,9S,12R,15S,18R,21S,24R)-2,2,5,6,11,12,18,24-octamethyl-4,7,10,13,16,19,22-heptaoxo-9,15,21-tripentyl-3,8,14,20-tetraoxa-5,11,17,23-tetraazapentacosan-25-oyl)oxy)heptanoate”, which step yield is on record?
A: 69%

Q: With “Benzyl (S)-2-((6R,9S,12R)-N,2,2,5,6,11,12-heptamethyl-4,7,10-trioxo-9-pentyl-3,8-dioxa-5,11-diazatridecan-13- amido)heptanoate” as the substance, how does the step yield read?
A: 72%

Q: Which step yield does the source give for “Benzyl (6R,9S,12R,15S)-2,2,5,6,8,11,12,14-octamethyl-4,7,10,13-tetraoxo-9,15-dipentyl-3-oxa-5,8,11,14-tetraazahexadecan-16-oate” here?
A: 51% yield overall

Same assay, conditions: cyclisation step, 3 steps

Q: With “(3R,6S,9R,12S,15R,18S,21R,24S)-1,3,4,7,9,10,13,15,16,19,21-undecamethyl-6,12,18,24-tetrapentyl-1,4,7,10,13,16,19,22-octaazacyclotetracosan-2,5,8,11,14,17,20,23-octaone” as the substance, how does the cyclisation yield read?
A: 8% yield

Same assay, conditions: cyclisation step, 3 steps from O59

Q: For “(3S,6R,9S,12R,15S,18R,21S,24R)-1,6,7,12,13,18,19,24-Octamethyl-3,9,15,21-tetrapentyl-1,4,7,10,13,16,19,22-octaazacyclotetracosan-2,5,8,11,14,17,20,23-octaone”, which cyclisation yield is on record?
A: 11.0%

Same assay, conditions: cyclisation step, 3 steps from linear depsipeptide

Q: Which cyclisation yield does the source give for “(3R,6S,9R,12S,15R,18S,21R,24S)-1,3,4,7,9,10,13,15,16,19,21-undecamethyl-6,12,18,24-tetrapentyl-1,4,7,10,13,16,19,22-octaazacyclotetracosan-2,5,8,11,14,17,20,23-octaone” here?
A: 7.5%

Source: article PMC11284792 (Journal of Medicinal Chemistry, 2024)
